The source of these data is US9574173.

These are yes or no findings as the source states them, for the method shown. Some entries that bind do so weakly or less than the wild type.

The target of assay [1] is T1, myocyte enhancer factor 2A (MEF2A) (human), Q02078.
T1 chain: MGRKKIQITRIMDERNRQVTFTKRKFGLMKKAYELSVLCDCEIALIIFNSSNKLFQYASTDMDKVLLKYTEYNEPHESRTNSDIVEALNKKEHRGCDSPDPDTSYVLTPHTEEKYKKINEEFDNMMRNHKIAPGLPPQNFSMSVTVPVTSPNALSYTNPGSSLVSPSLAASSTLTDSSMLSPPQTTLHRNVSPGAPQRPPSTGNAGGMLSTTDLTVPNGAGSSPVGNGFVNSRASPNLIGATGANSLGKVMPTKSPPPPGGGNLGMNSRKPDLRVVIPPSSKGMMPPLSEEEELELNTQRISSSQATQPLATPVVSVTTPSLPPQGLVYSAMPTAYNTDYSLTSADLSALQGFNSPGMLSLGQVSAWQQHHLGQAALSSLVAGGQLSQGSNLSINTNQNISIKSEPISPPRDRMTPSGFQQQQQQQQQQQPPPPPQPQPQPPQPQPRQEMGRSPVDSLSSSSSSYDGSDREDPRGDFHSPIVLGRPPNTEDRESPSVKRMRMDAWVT
Put plainly: immunoprecipitation and Western blot, RA-treated hTS cells (FIG. 22c). As to conditions: remark: other sources report otherwise.

Assay [2] deals with T2, nuclear factor of activated T-cells (NFAT1) (human), Q13469.
T2 chain: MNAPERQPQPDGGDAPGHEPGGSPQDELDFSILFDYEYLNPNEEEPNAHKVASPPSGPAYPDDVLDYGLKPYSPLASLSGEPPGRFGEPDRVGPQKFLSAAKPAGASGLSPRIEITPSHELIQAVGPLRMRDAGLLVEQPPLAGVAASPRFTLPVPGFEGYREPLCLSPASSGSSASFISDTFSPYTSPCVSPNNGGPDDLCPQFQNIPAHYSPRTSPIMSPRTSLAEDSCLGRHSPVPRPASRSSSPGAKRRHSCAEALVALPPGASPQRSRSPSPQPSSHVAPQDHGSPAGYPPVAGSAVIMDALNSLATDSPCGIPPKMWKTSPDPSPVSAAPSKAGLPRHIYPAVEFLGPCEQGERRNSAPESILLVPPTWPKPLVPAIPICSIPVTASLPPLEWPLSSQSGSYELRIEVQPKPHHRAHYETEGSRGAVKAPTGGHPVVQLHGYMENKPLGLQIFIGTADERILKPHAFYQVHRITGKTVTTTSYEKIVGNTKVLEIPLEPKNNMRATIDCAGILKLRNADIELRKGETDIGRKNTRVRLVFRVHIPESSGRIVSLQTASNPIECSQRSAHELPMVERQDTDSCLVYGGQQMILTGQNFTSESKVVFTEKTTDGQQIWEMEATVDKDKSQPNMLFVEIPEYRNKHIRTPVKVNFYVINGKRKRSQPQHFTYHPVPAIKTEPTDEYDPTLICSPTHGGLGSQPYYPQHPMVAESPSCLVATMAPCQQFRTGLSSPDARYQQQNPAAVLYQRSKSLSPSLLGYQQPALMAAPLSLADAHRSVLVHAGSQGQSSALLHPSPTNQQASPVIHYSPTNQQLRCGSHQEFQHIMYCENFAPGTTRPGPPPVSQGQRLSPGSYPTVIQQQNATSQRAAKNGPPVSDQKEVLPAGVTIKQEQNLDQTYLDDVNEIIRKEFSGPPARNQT
The description is as above. As to conditions: remark: other sources report otherwise.

B1: nuclear factor of activated T-cells (NFAT1), Q13469 1-925 (protein, human, UniProt Q13469 1-925, looked up)
chain: MNAPERQPQPDGGDAPGHEPGGSPQDELDFSILFDYEYLNPNEEEPNAHKVASPPSGPAYPDDVLDYGLKPYSPLASLSGEPPGRFGEPDRVGPQKFLSAAKPAGASGLSPRIEITPSHELIQAVGPLRMRDAGLLVEQPPLAGVAASPRFTLPVPGFEGYREPLCLSPASSGSSASFISDTFSPYTSPCVSPNNGGPDDLCPQFQNIPAHYSPRTSPIMSPRTSLAEDSCLGRHSPVPRPASRSSSPGAKRRHSCAEALVALPPGASPQRSRSPSPQPSSHVAPQDHGSPAGYPPVAGSAVIMDALNSLATDSPCGIPPKMWKTSPDPSPVSAAPSKAGLPRHIYPAVEFLGPCEQGERRNSAPESILLVPPTWPKPLVPAIPICSIPVTASLPPLEWPLSSQSGSYELRIEVQPKPHHRAHYETEGSRGAVKAPTGGHPVVQLHGYMENKPLGLQIFIGTADERILKPHAFYQVHRITGKTVTTTSYEKIVGNTKVLEIPLEPKNNMRATIDCAGILKLRNADIELRKGETDIGRKNTRVRLVFRVHIPESSGRIVSLQTASNPIECSQRSAHELPMVERQDTDSCLVYGGQQMILTGQNFTSESKVVFTEKTTDGQQIWEMEATVDKDKSQPNMLFVEIPEYRNKHIRTPVKVNFYVINGKRKRSQPQHFTYHPVPAIKTEPTDEYDPTLICSPTHGGLGSQPYYPQHPMVAESPSCLVATMAPCQQFRTGLSSPDARYQQQNPAAVLYQRSKSLSPSLLGYQQPALMAAPLSLADAHRSVLVHAGSQGQSSALLHPSPTNQQASPVIHYSPTNQQLRCGSHQEFQHIMYCENFAPGTTRPGPPPVSQGQRLSPGSYPTVIQQQNATSQRAAKNGPPVSDQKEVLPAGVTIKQEQNLDQTYLDDVNEIIRKEFSGPPARNQT
On to B1, for which the binding entry in assay [1] was “binds”.

B2: myocyte enhancer factor 2A (MEF2A), Q02078 1-507 (protein, human, UniProt Q02078 1-507, looked up)
chain: MGRKKIQITRIMDERNRQVTFTKRKFGLMKKAYELSVLCDCEIALIIFNSSNKLFQYASTDMDKVLLKYTEYNEPHESRTNSDIVEALNKKEHRGCDSPDPDTSYVLTPHTEEKYKKINEEFDNMMRNHKIAPGLPPQNFSMSVTVPVTSPNALSYTNPGSSLVSPSLAASSTLTDSSMLSPPQTTLHRNVSPGAPQRPPSTGNAGGMLSTTDLTVPNGAGSSPVGNGFVNSRASPNLIGATGANSLGKVMPTKSPPPPGGGNLGMNSRKPDLRVVIPPSSKGMMPPLSEEEELELNTQRISSSQATQPLATPVVSVTTPSLPPQGLVYSAMPTAYNTDYSLTSADLSALQGFNSPGMLSLGQVSAWQQHHLGQAALSSLVAGGQLSQGSNLSINTNQNISIKSEPISPPRDRMTPSGFQQQQQQQQQQQPPPPPQPQPQPPQPQPRQEMGRSPVDSLSSSSSSYDGSDREDPRGDFHSPIVLGRPPNTEDRESPSVKRMRMDAWVT
On to B2, for which, in assay [2], the binding result is listed as “binds”.
